The assay has as its target T1, CD24 overexpressed from the pcDNA4-CD24-myc plasmid in HT29 cells (human) (UniProt P25063).
T1 sequence: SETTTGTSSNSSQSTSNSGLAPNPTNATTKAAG
Description: co-IP; Grp75 and Hspa8/Hsc71 co-immunoprecipitated with CD24 (Supplementary Figure S2); cells and antibodies not given.

Sequences of proteins named here, by UniProt entry; tags and fusion partners are left off. Residues count along the entry.
UniProt P11142: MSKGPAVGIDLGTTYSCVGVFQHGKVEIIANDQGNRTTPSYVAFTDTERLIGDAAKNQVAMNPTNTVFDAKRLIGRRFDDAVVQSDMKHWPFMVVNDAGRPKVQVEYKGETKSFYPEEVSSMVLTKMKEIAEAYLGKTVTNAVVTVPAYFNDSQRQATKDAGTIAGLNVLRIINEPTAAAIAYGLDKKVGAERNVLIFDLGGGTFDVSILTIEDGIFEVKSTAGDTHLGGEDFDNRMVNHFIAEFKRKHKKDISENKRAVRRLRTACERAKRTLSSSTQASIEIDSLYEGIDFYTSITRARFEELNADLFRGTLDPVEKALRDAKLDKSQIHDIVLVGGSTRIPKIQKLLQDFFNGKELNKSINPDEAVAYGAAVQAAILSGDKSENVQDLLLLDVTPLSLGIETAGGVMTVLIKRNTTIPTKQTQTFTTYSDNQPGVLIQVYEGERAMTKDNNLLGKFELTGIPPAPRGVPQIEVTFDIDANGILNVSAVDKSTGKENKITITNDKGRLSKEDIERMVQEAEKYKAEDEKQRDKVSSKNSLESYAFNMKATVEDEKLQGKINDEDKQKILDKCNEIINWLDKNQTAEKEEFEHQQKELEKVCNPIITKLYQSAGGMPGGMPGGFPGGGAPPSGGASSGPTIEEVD
UniProt P38646, residues 47-679: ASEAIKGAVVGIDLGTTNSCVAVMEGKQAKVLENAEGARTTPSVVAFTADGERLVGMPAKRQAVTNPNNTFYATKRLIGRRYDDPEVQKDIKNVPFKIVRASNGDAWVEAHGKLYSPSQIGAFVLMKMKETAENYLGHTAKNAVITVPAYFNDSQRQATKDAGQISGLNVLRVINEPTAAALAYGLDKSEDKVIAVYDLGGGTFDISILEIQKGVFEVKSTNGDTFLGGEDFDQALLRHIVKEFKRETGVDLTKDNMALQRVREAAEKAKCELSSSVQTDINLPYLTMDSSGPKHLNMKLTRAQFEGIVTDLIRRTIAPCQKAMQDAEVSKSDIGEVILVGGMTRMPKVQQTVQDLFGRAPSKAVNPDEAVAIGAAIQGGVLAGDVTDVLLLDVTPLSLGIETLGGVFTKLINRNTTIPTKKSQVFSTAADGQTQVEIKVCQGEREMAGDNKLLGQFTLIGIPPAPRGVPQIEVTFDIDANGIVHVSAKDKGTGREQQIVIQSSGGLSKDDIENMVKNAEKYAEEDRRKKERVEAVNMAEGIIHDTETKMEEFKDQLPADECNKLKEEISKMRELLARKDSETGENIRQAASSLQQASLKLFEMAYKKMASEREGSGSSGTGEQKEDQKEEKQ

These are yes or no findings as the source states them, for the method shown. Binding seen in cells or lysates may run through a third protein. Some results given as binding are weak or reduced against the parent protein; the word gives no strength. Where a sequence is shown, tags or fusion partners need not be part of it.

Take Hspa8/Hsc71 (from UniProt P11142 1-646): the binding entry is recorded as “binds”. For Grp75 (from UniProt P38646 47-679), the binding entry was “binds”.

These data come from PMC5342444.
